Results from publication PMC8141524.
No constants are given. Whether binding was seen depends on the method and setting. Some binding calls cover weakened binding; strength is not graded here. Tags and fused reporters may be left off the sequences shown.

The chains behind the UniProt entries cited, without tags or fusion partners. Residues count along the entry.
UniProt Q68FF0, residues 144-261: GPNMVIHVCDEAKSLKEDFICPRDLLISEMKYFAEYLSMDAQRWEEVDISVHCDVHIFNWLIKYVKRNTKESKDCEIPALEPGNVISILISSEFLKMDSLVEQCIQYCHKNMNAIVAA

Target: T1, GST-SMRT(1383-1467), residues 1383-1467 of mouse SMRT (mouse) (UniProt Q9WU42)
T1 sequence: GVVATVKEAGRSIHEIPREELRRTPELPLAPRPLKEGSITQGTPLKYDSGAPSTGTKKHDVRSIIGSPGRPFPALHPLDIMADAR
Assay: pull-down; 200 nM His6-tagged BTB domain with equimolar GST-tagged protein, 50 mM HEPES pH 8.0, 150 mM NaCl, 0.1% IGEPAL-CA630, 2 mM EDTA, 4 °C; glutathione sepharose 4B; immunoblot anti-His; both purified

- binding: binds
Substance: His6-SANBR(BTB), the predicted BTB domain of SANBR (amino acids 144-261) (from UniProt Q68FF0-1 144-261) (domain or fragment)
